The source of these data is article PMC5441903, “The E3 ligase ABI3-INTERACTING PROTEIN2 negatively regulates FUSCA3 and plays a role in cotyledon development in Arabidopsis thaliana” (Journal of Experimental Botany, 2017).

The target of assay [1] is T1, BD-FUS3^N90 (FUS3 N-terminal region, first 90 amino acids including the B2 domain, fused to the LexA DNA-binding domain) (Arabidopsis thaliana) (UniProt Q9LW31).
T1 sequence: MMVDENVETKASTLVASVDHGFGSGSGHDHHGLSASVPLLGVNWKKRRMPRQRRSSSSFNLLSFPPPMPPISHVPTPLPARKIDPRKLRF
Description: two-hybrid; LexA DB fusion of FUS3^N90 (pEG202) and AD fusions of AIP2 variants (pJG4-5) in S. cerevisiae EGY48; growth on -His/-Trp/-Leu/-Ura plates with 2% galactose and 1% raffinose (leucine reporter).

Assay [2] addresses T2, nYFP–FUS3 (Arabidopsis thaliana) (UniProt Q9LW31).
T2 sequence: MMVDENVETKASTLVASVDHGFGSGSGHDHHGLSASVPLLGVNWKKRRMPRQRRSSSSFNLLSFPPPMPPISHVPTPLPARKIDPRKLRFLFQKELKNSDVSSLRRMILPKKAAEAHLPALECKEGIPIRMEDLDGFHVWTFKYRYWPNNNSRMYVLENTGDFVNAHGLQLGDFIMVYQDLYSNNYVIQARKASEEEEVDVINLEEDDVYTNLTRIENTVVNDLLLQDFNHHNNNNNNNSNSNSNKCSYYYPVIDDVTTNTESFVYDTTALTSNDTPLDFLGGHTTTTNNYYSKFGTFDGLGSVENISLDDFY
Nature of the assay: split reporter; BiFC: nYFP and cYFP fusions transiently co-expressed in N. benthamiana leaves by agroinfiltration, confocal imaging after 48 h.

For another assay, the target named is T3, GST–FUS3 (Arabidopsis thaliana, UniProt Q9LW31 1-313).
T3 construct: FUSCA3 (FUS3), Arabidopsis thaliana, At3g26790; GST fusion of ~66 kDa, construct described in Lu et al. (2010); probably the whole FUS3; also called glutathione S-transferase (GST)–FUS3; source: recombinant, purified (glutathione resin)
T3 sequence (looked up): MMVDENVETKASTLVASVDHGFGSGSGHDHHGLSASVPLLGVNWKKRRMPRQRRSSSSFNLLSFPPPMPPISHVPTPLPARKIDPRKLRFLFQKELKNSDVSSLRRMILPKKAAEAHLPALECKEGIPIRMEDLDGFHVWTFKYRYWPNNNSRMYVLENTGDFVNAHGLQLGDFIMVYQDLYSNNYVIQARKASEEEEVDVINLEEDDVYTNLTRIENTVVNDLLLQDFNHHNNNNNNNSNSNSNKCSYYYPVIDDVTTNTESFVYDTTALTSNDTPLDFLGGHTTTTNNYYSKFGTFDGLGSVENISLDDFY
Nature of the assay: pull-down; GST–FUS3 (2.5 µg) incubated with 35Sp:HA-AIP2 or 35Sp:HA-AIP2^C/S,E/G plant cell lysates, pulled down with glutathione resin; AIP2 detected with anti-HA; only the target purified.

These are yes or no findings as the source states them, for the method shown. For some of these results: In cells and extracts the contact can be indirect. Some binding calls cover weakened binding; strength is not graded here. Sequences can lack the tags named with a protein.

B1: AD-AIP2 (ABI3-… PROTEIN2 fused to an activation domain) (protein, UniProt Q8RXD3 1-310)
chain: MDASSSPSPSEESLKLELDDLQKQLNKKLRFEASVCSIHNLLRDHYSSSSPSLRKQFYIVVSRVATVLKTRYTATGFWVAGLSLFEEAERLVSDASEKKHLKSCVAQAKEQLSEVDNQPTESSQGYLFEGHLTVDREPPQPQWLVQQNLMSAFASIVGGESSNGPTENTIGETANLMQELINGLDMIIPDILDDGGPPRAPPASKEVVEKLPVIIFTEELLKKFGAEAECCICKENLVIGDKMQELPCKHTFHPPCLKPWLDEHNSCPICRHELPTDDQKYENWKEREKEAEEERKGAENAVRGGEYMYV
Turning to B1, in assay [1], the binding entry is listed as “binds”.

B2: cYFP–AIP2 (protein, UniProt Q8RXD3 1-310)
chain: MDASSSPSPSEESLKLELDDLQKQLNKKLRFEASVCSIHNLLRDHYSSSSPSLRKQFYIVVSRVATVLKTRYTATGFWVAGLSLFEEAERLVSDASEKKHLKSCVAQAKEQLSEVDNQPTESSQGYLFEGHLTVDREPPQPQWLVQQNLMSAFASIVGGESSNGPTENTIGETANLMQELINGLDMIIPDILDDGGPPRAPPASKEVVEKLPVIIFTEELLKKFGAEAECCICKENLVIGDKMQELPCKHTFHPPCLKPWLDEHNSCPICRHELPTDDQKYENWKEREKEAEEERKGAENAVRGGEYMYV
As to B2, in assay [2], the binding result is listed as “binds”.

B3: HA-AIP2 (35Sp:HA-AIP2) (protein, UniProt Q8RXD3 1-310)
chain: MDASSSPSPSEESLKLELDDLQKQLNKKLRFEASVCSIHNLLRDHYSSSSPSLRKQFYIVVSRVATVLKTRYTATGFWVAGLSLFEEAERLVSDASEKKHLKSCVAQAKEQLSEVDNQPTESSQGYLFEGHLTVDREPPQPQWLVQQNLMSAFASIVGGESSNGPTENTIGETANLMQELINGLDMIIPDILDDGGPPRAPPASKEVVEKLPVIIFTEELLKKFGAEAECCICKENLVIGDKMQELPCKHTFHPPCLKPWLDEHNSCPICRHELPTDDQKYENWKEREKEAEEERKGAENAVRGGEYMYV
On to B3, for which, in the assay with GST–FUS3, the binding entry is “binds”.

B4: AIP2^(C/S,E/G)-6×His (inactive AIP2 variant) (natural protein, Arabidopsis thaliana, UniProt Q8RXD3 1-310, looked up)
chain: MDASSSPSPSEESLKLELDDLQKQLNKKLRFEASVCSIHNLLRDHYSSSSPSLRKQFYIVVSRVATVLKTRYTATGFWVAGLSLFEEAERLVSDASEKKHLKSCVAQAKEQLSEVDNQPTESSQGYLFEGHLTVDREPPQPQWLVQQNLMSAFASIVGGESSNGPTENTIGETANLMQELINGLDMIIPDILDDGGPPRAPPASKEVVEKLPVIIFTEELLKKFGAEAESSICKGNLVIGDKMQELPCKHTFHPPCLKPWLDEHNSCPICRHELPTDDQKYENWKEREKEAEEERKGAENAVRGGEYMYV
notes: ~40 kDa; Probably the same FLAG-...-6×His construct as m5 with the three mutations; source: recombinant, purified
Regarding B4, the binding result in the assay with GST–FUS3 was “binds”.
